Data as given in PMC13557503.

The chains behind the UniProt entries cited, without tags or fusion partners. Where a name states a change or a piece, a line headed by the entry shows the natural chain unless it says otherwise.
UniProt F7W136: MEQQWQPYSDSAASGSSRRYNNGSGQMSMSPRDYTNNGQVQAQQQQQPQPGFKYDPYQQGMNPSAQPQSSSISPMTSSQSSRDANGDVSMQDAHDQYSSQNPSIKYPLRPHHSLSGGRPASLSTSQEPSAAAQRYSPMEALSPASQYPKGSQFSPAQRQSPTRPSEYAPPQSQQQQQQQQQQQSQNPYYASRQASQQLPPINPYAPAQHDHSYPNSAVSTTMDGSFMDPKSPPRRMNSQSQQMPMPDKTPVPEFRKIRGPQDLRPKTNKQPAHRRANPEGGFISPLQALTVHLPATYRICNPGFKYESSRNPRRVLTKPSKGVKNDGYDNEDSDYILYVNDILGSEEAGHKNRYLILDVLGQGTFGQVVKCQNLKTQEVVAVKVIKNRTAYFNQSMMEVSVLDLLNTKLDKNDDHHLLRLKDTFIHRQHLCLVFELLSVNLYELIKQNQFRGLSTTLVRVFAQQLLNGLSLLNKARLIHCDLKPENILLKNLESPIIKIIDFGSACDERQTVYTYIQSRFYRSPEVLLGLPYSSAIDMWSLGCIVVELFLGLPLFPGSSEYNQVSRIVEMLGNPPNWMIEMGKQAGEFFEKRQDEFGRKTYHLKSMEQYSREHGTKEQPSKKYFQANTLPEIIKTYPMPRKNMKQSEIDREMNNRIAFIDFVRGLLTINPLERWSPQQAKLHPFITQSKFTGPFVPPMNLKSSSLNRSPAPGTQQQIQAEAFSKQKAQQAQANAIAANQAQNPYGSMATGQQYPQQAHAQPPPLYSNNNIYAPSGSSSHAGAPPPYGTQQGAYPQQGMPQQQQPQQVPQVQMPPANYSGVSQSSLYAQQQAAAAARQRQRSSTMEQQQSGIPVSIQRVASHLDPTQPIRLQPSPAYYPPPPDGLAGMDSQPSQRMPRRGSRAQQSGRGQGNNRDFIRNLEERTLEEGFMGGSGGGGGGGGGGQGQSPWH
UniProt F7VSX1: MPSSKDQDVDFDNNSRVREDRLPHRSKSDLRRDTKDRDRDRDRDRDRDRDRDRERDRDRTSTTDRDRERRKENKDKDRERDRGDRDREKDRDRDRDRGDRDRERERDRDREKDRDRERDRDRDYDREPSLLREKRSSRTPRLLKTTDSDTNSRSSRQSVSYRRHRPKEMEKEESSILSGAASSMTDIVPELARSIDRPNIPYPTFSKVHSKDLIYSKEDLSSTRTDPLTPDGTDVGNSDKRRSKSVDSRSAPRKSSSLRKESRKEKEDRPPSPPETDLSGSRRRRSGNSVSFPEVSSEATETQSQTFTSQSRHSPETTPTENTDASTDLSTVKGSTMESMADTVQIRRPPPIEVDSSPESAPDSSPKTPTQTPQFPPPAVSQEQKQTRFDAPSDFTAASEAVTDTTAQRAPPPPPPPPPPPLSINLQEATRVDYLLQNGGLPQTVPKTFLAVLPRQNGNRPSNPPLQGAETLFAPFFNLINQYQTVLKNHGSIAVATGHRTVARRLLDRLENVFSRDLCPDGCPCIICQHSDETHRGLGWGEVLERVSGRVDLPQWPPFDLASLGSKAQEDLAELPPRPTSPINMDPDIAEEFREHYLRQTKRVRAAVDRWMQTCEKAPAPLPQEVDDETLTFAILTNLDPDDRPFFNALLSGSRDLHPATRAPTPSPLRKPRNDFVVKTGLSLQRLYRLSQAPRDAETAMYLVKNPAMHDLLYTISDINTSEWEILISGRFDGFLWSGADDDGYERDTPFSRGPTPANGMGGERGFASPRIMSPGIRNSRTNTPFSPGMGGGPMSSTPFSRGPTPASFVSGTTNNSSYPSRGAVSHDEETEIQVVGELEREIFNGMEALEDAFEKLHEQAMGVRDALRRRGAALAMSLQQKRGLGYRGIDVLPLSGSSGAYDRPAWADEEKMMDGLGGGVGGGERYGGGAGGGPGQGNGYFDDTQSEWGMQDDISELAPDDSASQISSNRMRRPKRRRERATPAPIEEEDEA
UniProt F7VT55: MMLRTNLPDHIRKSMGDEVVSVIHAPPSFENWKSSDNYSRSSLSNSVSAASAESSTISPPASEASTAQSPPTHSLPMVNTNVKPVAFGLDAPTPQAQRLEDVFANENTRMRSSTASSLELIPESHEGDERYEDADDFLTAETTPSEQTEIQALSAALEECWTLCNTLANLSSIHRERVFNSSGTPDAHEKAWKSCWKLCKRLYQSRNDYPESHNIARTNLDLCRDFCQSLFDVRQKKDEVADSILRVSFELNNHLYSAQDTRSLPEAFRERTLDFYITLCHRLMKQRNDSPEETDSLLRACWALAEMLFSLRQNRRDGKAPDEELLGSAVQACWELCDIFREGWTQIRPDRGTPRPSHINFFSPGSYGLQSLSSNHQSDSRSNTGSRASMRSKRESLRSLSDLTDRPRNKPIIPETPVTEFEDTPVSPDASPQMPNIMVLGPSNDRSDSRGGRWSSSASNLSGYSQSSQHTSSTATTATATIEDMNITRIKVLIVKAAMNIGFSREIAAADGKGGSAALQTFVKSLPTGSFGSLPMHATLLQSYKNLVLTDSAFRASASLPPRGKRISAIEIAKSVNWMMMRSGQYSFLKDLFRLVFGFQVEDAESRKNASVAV

How the values were obtained:
[1] = molecular target: SmDOC1-TurboID (S. macrospora) (UniProt F7W7B4); assay: proximity labelling; TurboID BioID in vivo with SmDOC1-TurboID from the native locus as bait against wt::egfp-TurboID^ect; liquid BMM, three days, 27 °C, constant light; extraction with 4% SDS, Strep-Tactin Sepharose, LC-MS; n = 5; FDR 0.01, s0 2
[2] = molecular target: SCI1-TurboID (S. macrospora); assay: proximity labelling; TurboID BioID in vivo with SCI1-TurboID as bait (Δsci1::sci1-TurboID^ect) against the free TurboID control (wt::free-TurboID^ect); liquid BMM, three days, 27 °C, constant light; extraction with 4% SDS, Strep-Tactin Sepharose, LC-MS; eight replicates; FDR 0.01, s0 0.1
[3] = molecular target: SCI1-TurboID (S. macrospora); assay: proximity labelling; TurboID BioID in vivo with SCI1-TurboID as bait (Δsci1::sci1-TurboID^ect) against the SmSTRIPAK-dependent control Δpro11Δsci1::sci1-TurboID^ect; liquid BMM, three and four days, 27 °C, constant light; extraction with 4% SDS, Strep-Tactin Sepharose, LC-MS; eight replicates; FDR 0.01, s0 2

| Molecule | binding [1] | binding [2] | binding [3] |
| --- | --- | --- | --- |
| YAK1 (from UniProt F7W136) | binds | – | – |
| SMAC_05428 (from UniProt F7VSX1) | binds | – | – |
| SMAC_05755 (from UniProt F7VT55) | binds | – | – |
| PRO11 (protein, UniProt Q70M86 1-845) MGTNGVHVSFGAGHEMGGVMGNGSGQPPATEYTLQGVMRFLQTEWHRHERDRNAWEIEKQEMRARIANLEGQARRADATQKALKRYVSILEKKVKEQSAALKSGGKEKGVEDEAEAEDNKTKLDRSALIQEKLRPNTKLSGAPNEAENVEIGPPDDESARNELKTFLDQCQAEFTYLMVTPANPQPPRESPPLPILDDFREGEALNQQLEQSYQRSQQSQIRDLLAQQAAAANATNVAAVQSQQQQPQQQQHAVGPRPQTNQPPKGYGELAQGAPMERSSRGQQLHDILKSGETPDWSASMQSQPVEEPTSALSKAPPMVRGDGREPAVPKSASTTDAWDFNESNFQDPNAMPQPTPQQSFSSRPDTDAFPSAENLTKSPNRGALSHRRKSSSGMARRRSAEHELSLGSLQQKAEGTMFKFRFGLRGHLDVVRTVIFSGGGSPGEPEICTAGDDGLVKRFHIPDRHIGQRNADGDLDVAADFTHRGHSGAVLSLASWSPSPNFSTGGRAQGDGWIFSGGQDATIRVWERGRVDPKATLDGHTDAVWALCVLPTNLGAIFGQTNSHGPPDRILLVSGAADGTVKVWAVSAPPQLTSPQPGPGRRGPGGRVRGNSMSSGSAFPSSPQPTTASNSPFHHTLVHTIKRANSEASPTCITALSPNGETFAVSYADAAIIVYDTRSGEEIGTMASLDTYDGTNNTAVNAVVATTVGLDQTQGPGGEDESGGGPTGGGRSMAGSGVEGTIISGHEDRYIRFFDANSGQCTYNMLAHPGSVSSLSLSPDGRELVSAGHDMSLRFWSLETRSCTQEMTCHRSMRGEGVCAVVWSQDGRWVVSSGGDGMVKVYAR | – | binds | binds |
| PRO22 (protein, UniProt F7VWV9 1-1120) MTIMNALWSKATSSSGDSAQKSAKPTNDAVNTTSEALPDLSERPNAPALPARPALQRNQPSAPPPAAPSNPPPPVPSGSGSGNANNASAQPQDSLSLAQLRRIVAEFPKSEPIAYDYVYSDMGPIEEEVDEWFFYDFWQYVRLNNANHAFDSAWVKMYGEDETWESVDDDGREKFVRNEVEQLQVSSDKTARVEAIGTLLYIVLGRWTATVKKANLPNLADHKVKSAATKEQLDAMKAGVKLLAKYGGLPPMWDALRKAFELFWADDGDASQRVQANNEELMELMHLMTILYISLQTTMDDVEDMAVARKELLALNPNLVHFMLHATAKLRWDDRNILPQAQVGSATFGIPVAANQHRMLMSSQVFLLFWKSLLLVFGGSKHIAEAKKATAETLSDVKDKEIITASPLDYHVFRQEITSKYPSYIPPQCAIPLEAEQTSILPPLPNHPTRNNGQNGILPGPPNQSASASILHQPVHIATPAPSPPPSPGVGGKGGKKQNYQTNQNFPFMYPPLDATSNSAGGKGGAGLQDLLVGRKWEGSDVPASIIEAGELFSTRTRMTRATRQLWEERERFLKFERGWEGADEDLIDELDLSELTLEEKEELGLLKESEKKKEKHGHEIDLGPRPVDDDIKRRLEAVEEFYKEALPHLQSLVIVLLKAIVAIASSFVQPPPGQQNPGPQNNGRAGGGPPQGRGQNNGNNASNDPPSPSDDNVDEARSREIAAKAVTGIMILLLKWLKLSHILKFEYFTQLLLDSNYLPLVLKLFALHDVQQVVESKTDRIEHSFFYFCASRSGVIPPQGLINPTATDFEDVDVSEDEAAPPAIKRNRSPPGAEKGGPPDASSQPTQQQQQQQRFENSDVQSRPEVDELGYPVNPLPKEPITDFSRRNFFSLINYLRVMQKICKHKAHRNLLLVHYKSSNILRKSLKVPQQELRLYTLKLFKNQVPYCGRKWRQSNMRVITAIYLHCRPELRDEWLSGSDVDAEVEEALPLEQALRSLTHWFNVQRYPERMGAEVTAAMREERDFFTRELEKSDWMGWEGIMAGGGMGMDGGGGGPEPMMGMQGMQGMPGMPGMGMGMNMGMPGMGIGGMPGMGGMAGIEYAAAAAAAQTEHENSMGWS | – | binds | binds |

These are yes or no findings as the source states them, for the method shown. Binding seen in cells or lysates may run through a third protein. A yes stands for co-enrichment or nearness to the bait. Other partners may have been found.
